These results are taken from paper PMC11623927, “Synthesis and biological assessment of chalcone and pyrazoline derivatives as novel inhibitor for ELF3-MED23 interaction” (eLife, 2024).

Test [1] addresses T1, mediator of RNA polymerase II transcription subunit 23 (MED23), endogenous (human (endogenous in NCI-N87)) (UniProt Q9ULK4).
T1 sequence: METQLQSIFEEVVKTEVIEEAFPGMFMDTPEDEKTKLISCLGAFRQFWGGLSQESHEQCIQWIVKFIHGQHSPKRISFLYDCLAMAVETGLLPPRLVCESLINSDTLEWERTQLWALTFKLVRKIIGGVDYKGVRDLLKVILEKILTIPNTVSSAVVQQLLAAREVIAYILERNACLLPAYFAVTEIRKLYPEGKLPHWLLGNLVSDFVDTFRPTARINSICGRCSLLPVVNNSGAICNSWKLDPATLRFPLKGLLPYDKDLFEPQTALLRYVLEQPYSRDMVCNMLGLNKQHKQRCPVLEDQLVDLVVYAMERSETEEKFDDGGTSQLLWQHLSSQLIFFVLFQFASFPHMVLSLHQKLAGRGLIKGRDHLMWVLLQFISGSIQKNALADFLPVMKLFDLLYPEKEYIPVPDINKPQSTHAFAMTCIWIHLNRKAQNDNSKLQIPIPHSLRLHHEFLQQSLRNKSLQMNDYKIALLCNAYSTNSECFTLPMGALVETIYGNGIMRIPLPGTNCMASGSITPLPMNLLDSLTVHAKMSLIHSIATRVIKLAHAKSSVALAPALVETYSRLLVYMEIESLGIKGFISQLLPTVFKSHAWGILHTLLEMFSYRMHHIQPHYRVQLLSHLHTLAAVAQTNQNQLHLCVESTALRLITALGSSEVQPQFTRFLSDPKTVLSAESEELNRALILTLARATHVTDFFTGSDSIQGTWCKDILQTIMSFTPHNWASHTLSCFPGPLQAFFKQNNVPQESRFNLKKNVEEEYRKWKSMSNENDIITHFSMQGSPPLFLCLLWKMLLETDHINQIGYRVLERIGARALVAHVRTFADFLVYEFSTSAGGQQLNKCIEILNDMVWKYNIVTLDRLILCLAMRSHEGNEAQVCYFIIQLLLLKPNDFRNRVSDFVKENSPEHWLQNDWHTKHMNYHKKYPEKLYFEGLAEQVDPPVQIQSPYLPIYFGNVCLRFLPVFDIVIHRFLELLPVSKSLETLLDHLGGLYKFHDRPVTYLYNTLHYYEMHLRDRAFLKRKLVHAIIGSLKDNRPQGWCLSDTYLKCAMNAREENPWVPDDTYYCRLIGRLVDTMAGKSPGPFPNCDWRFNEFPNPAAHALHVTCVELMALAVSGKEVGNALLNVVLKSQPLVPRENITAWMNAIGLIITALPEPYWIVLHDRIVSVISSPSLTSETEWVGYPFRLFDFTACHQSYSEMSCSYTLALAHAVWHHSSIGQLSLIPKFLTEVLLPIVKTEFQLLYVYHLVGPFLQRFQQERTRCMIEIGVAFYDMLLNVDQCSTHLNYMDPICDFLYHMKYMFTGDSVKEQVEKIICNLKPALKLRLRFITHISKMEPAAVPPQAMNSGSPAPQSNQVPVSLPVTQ
Nature of the test: co-IP; endogenous proteins in NCI-N87 lysate (400 μg); MED23 antibody or rabbit IgG, protein-A/G PLUS-agarose, 4 °C; blot for ELF3; cells treated with 10 μM of compounds 3, 10 or 25 for 16 hr.

The target of test [2] is T2, fluorescein isothiocyanate (FITC)-labeled ELF3_(129-145) peptide (UniProt P78545).
T2 sequence (peptide, fluorescein isothiocyanate (FITC) label, position not stated): TSSSSDELSWIIELLEK
Nature of the test: fluorescence polarisation; cell-free displacement; varying concentrations of unlabeled ELF3(137-144) peptide added to 80 nM (His)6-MED23(391-582) and 10 nM FITC-ELF3(129-145); Ki from IC50 by the Cheng-Prusoff equation; n=3; both purified. (Polarisation of emitted light reports the rotation of a fluorescent probe.)

The target of test [3] is T3, GST-ELF3WT (UniProt P78545).
T3 sequence: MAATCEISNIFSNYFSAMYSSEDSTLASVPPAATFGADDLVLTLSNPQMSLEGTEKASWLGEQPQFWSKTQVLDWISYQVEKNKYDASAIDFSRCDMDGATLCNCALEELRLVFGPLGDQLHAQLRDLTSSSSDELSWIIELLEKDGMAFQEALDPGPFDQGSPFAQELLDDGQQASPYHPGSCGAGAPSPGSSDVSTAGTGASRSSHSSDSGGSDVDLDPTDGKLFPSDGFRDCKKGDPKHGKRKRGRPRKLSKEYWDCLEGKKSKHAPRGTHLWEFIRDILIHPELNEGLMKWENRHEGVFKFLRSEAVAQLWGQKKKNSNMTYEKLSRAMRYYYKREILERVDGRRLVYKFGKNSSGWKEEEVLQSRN
Nature of the test: pull-down; GST-ELF3WT and 3xFLAG-MED23 expressed in HEK293; 1000 μg lysate on Glutathione Sepharose beads overnight at 4 °C, washed with PBS, eluted with glutathione; western blot; with or without 5 μM compound 10. In general terms: Immunoblotting shows a protein as a band on a membrane.

Results are given in words; binding and its absence hold for the method and conditions named. For part of these data: In cells and extracts the contact can be indirect. Some binding calls cover weakened binding; strength is not graded here. For part of these data: Sequences can lack the tags named with a protein.

B1: Nluc-ELF3WT (natural protein, UniProt P78545 1-371, looked up)
chain: T3 sequence
notes: ELF3, full-length cDNA, wild type; source: HEK293, transfected, in cells
For B1, the binding entry in test [1] is reported as “binds”.

B2: (His)6-MED23_(391-582) protein (domain or fragment, UniProt Q9ULK4 391-582)
chain: DFLPVMKLFDLLYPEKEYIPVPDINKPQSTHAFAMTCIWIHLNRKAQNDNSKLQIPIPHSLRLHHEFLQQSLRNKSLQMNDYKIALLCNAYSTNSECFTLPMGALVETIYGNGIMRIPLPGTNCMASGSITPLPMNLLDSLTVHAKMSLIHSIATRVIKLAHAKSSVALAPALVETYSRLLVYMEIESLGIK
As to B2, the binding result in test [2] is “binds”.

B3: 3xFLAG-MED23 (protein, UniProt Q9ULK4 1-1368)
chain: T1 sequence
Consider B3, for which, in test [3], the binding result was “binds”.
